According to publication PMC12240075:
Substitutions are numbered along the chain they refer to. These are yes or no findings as the source states them, for the method shown. Binding seen in cells or lysates may run through a third protein. Some binding calls cover weakened binding; strength is not graded here. Sequences can lack the tags named with a protein.

By UniProt entry, the sequences of proteins in these tests, tags left out.
UniProt P11142: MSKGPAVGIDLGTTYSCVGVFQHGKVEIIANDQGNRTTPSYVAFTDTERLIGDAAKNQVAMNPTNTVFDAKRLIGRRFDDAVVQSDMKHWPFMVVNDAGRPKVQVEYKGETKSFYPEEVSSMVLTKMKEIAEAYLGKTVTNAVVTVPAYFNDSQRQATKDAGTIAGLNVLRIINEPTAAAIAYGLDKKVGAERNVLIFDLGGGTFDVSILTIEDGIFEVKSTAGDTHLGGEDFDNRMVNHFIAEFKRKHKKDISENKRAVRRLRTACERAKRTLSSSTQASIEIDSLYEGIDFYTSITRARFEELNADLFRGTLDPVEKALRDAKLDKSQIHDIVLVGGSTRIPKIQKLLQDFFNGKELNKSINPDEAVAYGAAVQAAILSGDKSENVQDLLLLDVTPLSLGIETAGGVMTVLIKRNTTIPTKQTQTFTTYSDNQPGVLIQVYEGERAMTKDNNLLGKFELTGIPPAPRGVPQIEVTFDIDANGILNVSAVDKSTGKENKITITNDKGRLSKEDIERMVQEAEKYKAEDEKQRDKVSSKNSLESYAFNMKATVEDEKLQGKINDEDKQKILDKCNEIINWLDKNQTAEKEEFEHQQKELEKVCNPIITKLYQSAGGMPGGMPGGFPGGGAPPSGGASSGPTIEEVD

How the values were obtained:
Assay in all cases: co-IP; tagged bait overproduced in transfected HEK293T cells, partner endogenous; lysis buffer 200 mM NaCl, 1 mM EDTA, 20 mM Tris (pH 7.5), 0.5% NP-40; for Lamp2a (Fig. 3I, 6I) cells treated with 10 μM CQ for 3 h
HA-OGA-K358R = target: T1, HA-OGA-K358R (UniProt O60502)
T1 sequence: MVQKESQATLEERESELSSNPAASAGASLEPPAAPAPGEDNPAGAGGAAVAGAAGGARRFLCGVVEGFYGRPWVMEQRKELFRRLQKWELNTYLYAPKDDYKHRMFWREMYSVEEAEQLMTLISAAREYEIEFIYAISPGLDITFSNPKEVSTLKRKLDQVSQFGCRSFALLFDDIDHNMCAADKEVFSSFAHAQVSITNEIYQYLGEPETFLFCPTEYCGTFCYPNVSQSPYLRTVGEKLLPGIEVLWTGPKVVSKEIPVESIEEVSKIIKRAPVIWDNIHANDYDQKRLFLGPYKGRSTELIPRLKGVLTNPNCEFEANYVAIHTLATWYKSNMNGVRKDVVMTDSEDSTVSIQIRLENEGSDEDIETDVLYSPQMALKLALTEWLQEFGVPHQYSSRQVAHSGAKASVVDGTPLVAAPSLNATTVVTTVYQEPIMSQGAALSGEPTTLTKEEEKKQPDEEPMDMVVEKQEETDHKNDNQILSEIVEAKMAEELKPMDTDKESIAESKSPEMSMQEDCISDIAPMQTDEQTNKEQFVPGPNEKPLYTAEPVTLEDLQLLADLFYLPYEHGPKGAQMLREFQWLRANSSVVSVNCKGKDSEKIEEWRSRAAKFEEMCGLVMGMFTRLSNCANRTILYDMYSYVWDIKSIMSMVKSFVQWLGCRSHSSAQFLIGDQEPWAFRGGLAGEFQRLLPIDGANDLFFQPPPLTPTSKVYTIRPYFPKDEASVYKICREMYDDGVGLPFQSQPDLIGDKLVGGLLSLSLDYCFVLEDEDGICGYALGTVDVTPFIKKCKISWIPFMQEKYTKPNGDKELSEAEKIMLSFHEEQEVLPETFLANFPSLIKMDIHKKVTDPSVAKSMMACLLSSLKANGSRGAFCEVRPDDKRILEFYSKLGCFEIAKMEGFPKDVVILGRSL

HA-OGA-Q356A/E360A = target: T2, HA-OGA-Q356A/E360A (UniProt O60502)
T2 sequence: T1 sequence with Q356A, R358K, E360A

HA-OGA-WT = target: T3, HA-OGA-WT (UniProt O60502)
T3 sequence: T1 sequence with R358K

binding (HA-OGA-K358R): binds
binding (HA-OGA-Q356A/E360A): binds
binding (HA-OGA-WT): binds
Substance: heat shock cognate protein 70 (endogenous) (from UniProt P11142 1-646)
